{"source": "paper PMC9646721", "about": "“Alkaloid binding to opium poppy major latex proteins triggers structural modification and functional aggregation” (Nature Communications, 2022)", "key": {"MLP2": {"tested_on": "MLP2", "assay": "ANS displacement assay", "format": "binding, Papaver somniferum", "conditions": "ANS displacement dose-response fit", "description": "(§1) Eluates were store separately on ice.\n(§2) Displacement of ANS is associated with reduced fluorescence."}, "PR10-12 [1]": {"tested_on": "PR10-12", "assay": "ANS displacement assay", "format": "binding, Papaver somniferum", "conditions": "ANS displacement dose-response fit", "description": "as §1, §2"}, "PR10-4": {"tested_on": "PR10-4", "assay": "ANS displacement assay", "format": "binding, Papaver somniferum", "conditions": "ANS displacement dose-response fit", "description": "as §1, §2"}, "PR10-12 [2]": {"tested_on": "PR10-12", "assay": "Isothermal titration calorimetry", "format": "binding, Papaver somniferum", "conditions": "ITC, PBS pH 7.4, 25 °C", "experimental": "ITC experiments were conducted using a Microcal VP instrument (Malvern Pananalytical, Malvern, UK). Recombinant MLP/PR10 protein preparation involving production in Escherichia coli followed by cobalt-affinity chromatography was optimized to yield relatively high purity in a single step as determined by SDS-PAGE and colloidal Coomassie blue silver staining. The less than 48 h decrease in atmospheric oxygen exposure generated high-quality proteins with reduced precipitate. […] Eluates were twice dialysed to equilibrium (i.e., 10–12 h at 4 °C) against a 1000-fold (2–4 L) volume of PBS, pH 7.4 (25 mM sodium phosphate, 50 mM NaCl) or CBS, pH 5.5, resulting in a theoretical million-fold dilution of undesired small molecules (e.g., <0.2 µM imidazole). Dialysis was carried out in boiled Spectra/Por 1 6–8 kDa MWCO 0.32 ml/cm (Spectrum Labs, USA) tubing thoroughly washed with either buffer before use. The second 1000-fold volume of dialysis buffer was filtered and degassed using a reusable bottle-top filtration apparatus (Nalgene, USA) with disposable […] cellulose filters (VWR, Canada) prior to storage at 4 °C. Ligands were dissolved in the filtered dialysis buffer at 21 °C for approximately one hour, and any insoluble material was removed by repeated centrifugation at 21,000 × g for 10 min. No change in pH occurred following substrate addition. Prior to ITC, which was initiated immediately following dialysis, the protein solutions were centrifuged at 17,000 × g and 4 °C for 30 min. Any precipitate was separated from the remaining soluble protein fraction which was quantified by absorption at A280nm and diluted with filtered dialysis buffer immediately before use.\nThermograms were recorded at 25 °C, with a reference power of 10 (dpu/sec) and monitoring of 30 injections of 9 µl BIA ligand solutions into a sample cell containing 1.4 ml of an MLP/PR10 protein solution, with 300 seconds between injections. Protein concentrations varied from 10 to 150 µM to achieve an optimal C value and curve shape valid for parameter calculation. […] To ensure that we report only the heat of reaction for each interaction, independent titrations of ligand into buffer, and buffer into protein solutions, were used to calculate and then subtract heats of dilution. After subtraction, binding isotherms were analyzed in MicroCal Origin 7 (MicroCal, USA) by fitting a single-site binding model using non-linear least squares regression analysis repeated until convergence. […] Each ITC experiment was repeated 2 to 4 times."}, "[3]": {"assay": "Sucrose density-gradient fractionation of latex, relative abundance of BIAs in gradient fractions", "design": "species or system Papaver somniferum"}, "[4]": {"tested_on": "engineered Saccharomyces cerevisiae CEN.PK strain (NISO not included)", "assay": "Morphinan alkaloid accumulation in opiate-producing yeast strain fed salutaridine", "format": "cell-based", "conditions": "replicates 1-4"}}, "note": "Values joined by “and” are separate entries in the source; they are usually repeats but may differ in a detail not shown here. Equal values may be shown once.", "data": [{"molecule": "COc1ccc2c3c1O[C@H]1[C@@H](O)C=C[C@H]4[C@@H](C2)N(C)CC[C@@]341", "note": "[Codeine, codeine]", "values": [{"measurement": "Hill Slope", "setting": "MLP2", "result": "-0.81 ± 0.16"}, {"measurement": "Hill Slope", "setting": "PR10-12 [1]", "result": "-1.38 ± 0.58"}, {"measurement": "Hill Slope", "setting": "PR10-4", "result": "-0.59 ± 0.42"}, {"measurement": "ΔH", "setting": "PR10-12 [2]", "result": "6.263 ± 0.5826", "unit": "kcal/mol"}, {"measurement": "ΔS", "setting": "PR10-12 [2]", "result": 38.6, "unit": "cal/mol/˚K"}, {"measurement": "N", "setting": "PR10-12 [2]; single-site model", "result": "0.938 ± 0.0615"}, {"measurement": "Alkaloid concentration in sucrose density-gradient fraction", "setting": "[3]; Cultivar 40, fraction 1", "result": 0.365, "unit": "mM"}, {"measurement": "Alkaloid concentration in sucrose density-gradient fraction", "setting": "[3]; Cultivar 40, fraction 2", "result": 0.265, "unit": "mM"}, {"measurement": "Alkaloid concentration in sucrose density-gradient fraction", "setting": "[3]; Cultivar 40, fraction 3", "result": 0.090, "unit": "mM"}, {"measurement": "Alkaloid concentration in sucrose density-gradient fraction", "setting": "[3]; Cultivar 40, fraction 4", "result": 0.043, "unit": "mM"}, {"measurement": "Alkaloid concentration in sucrose density-gradient fraction", "setting": "[3]; Cultivar 40, fraction 5", "result": 0.026, "unit": "mM"}, {"measurement": "Alkaloid concentration in sucrose density-gradient fraction", "setting": "[3]; Cultivar 40, fraction 6", "result": 0.017, "unit": "mM"}, {"measurement": "Alkaloid concentration in sucrose density-gradient fraction", "setting": "[3]; Cultivar 40, fraction 7", "result": 0.013, "unit": "mM"}, {"measurement": "Alkaloid concentration in sucrose density-gradient fraction", "setting": "[3]; Cultivar 40, fraction 8", "result": 0.013, "unit": "mM"}, {"measurement": "Alkaloid concentration in sucrose density-gradient fraction", "setting": "[3]; Cultivar 40, fraction 9", "result": 0.015, "unit": "mM"}, {"measurement": "Alkaloid concentration in sucrose density-gradient fraction", "setting": "[3]; Cultivar 40, fraction 10", "result": 0.015, "unit": "mM"}, {"measurement": "Alkaloid concentration in sucrose density-gradient fraction", "setting": "[3]; Cultivar 40, fraction 11", "result": 0.017, "unit": "mM"}, {"measurement": "Alkaloid concentration in sucrose density-gradient fraction", "setting": "[3]; Cultivar 40, fraction 12", "result": 0.018, "unit": "mM"}, {"measurement": "Alkaloid concentration in sucrose density-gradient fraction", "setting": "[3]; Cultivar 40, fraction 13", "result": 0.028, "unit": "mM"}, {"measurement": "Alkaloid concentration in sucrose density-gradient fraction", "setting": "[3]; Cultivar 40, fraction 14", "result": 0.034, "unit": "mM"}, {"measurement": "Alkaloid concentration in sucrose density-gradient fraction", "setting": "[3]; Cultivar 40, fraction 15", "result": 0.032, "unit": "mM"}, {"measurement": "Alkaloid concentration in sucrose density-gradient fraction", "setting": "[3]; Cultivar 40, fraction 16", "result": 0.035, "unit": "mM"}, {"measurement": "Alkaloid concentration in sucrose density-gradient fraction", "setting": "[3]; Cultivar 40, fraction 17", "result": 0.029, "unit": "mM"}, {"measurement": "Alkaloid concentration in sucrose density-gradient fraction", "setting": "[3]; Cultivar 40, fraction 18", "result": 0.030, "unit": "mM"}, {"measurement": "Alkaloid concentration in sucrose density-gradient fraction", "setting": "[3]; Cultivar 40, fraction 19", "result": 0.036, "unit": "mM"}, {"measurement": "Alkaloid concentration in sucrose density-gradient fraction", "setting": "[3]; Cultivar 40, fraction 20", "result": 0.065, "unit": "mM"}, {"measurement": "Alkaloid concentration in sucrose density-gradient fraction", "setting": "[3]; Cultivar 40, fraction 21", "result": 0.065, "unit": "mM"}, {"measurement": "Alkaloid concentration in sucrose density-gradient fraction", "setting": "[3]; Cultivar 40, fraction 22", "result": 0.058, "unit": "mM"}, {"measurement": "Alkaloid concentration in sucrose density-gradient fraction", "setting": "[3]; Cultivar Roxanne, fraction 1", "result": 0.182, "unit": "mM"}, {"measurement": "Alkaloid concentration in sucrose density-gradient fraction", "setting": "[3]; Cultivar Roxanne, fraction 2", "result": 0.081, "unit": "mM"}, {"measurement": "Alkaloid concentration in sucrose density-gradient fraction", "setting": "[3]; Cultivar Roxanne, fraction 3", "result": 0.023, "unit": "mM"}, {"measurement": "Alkaloid concentration in sucrose density-gradient fraction", "setting": "[3]; Cultivar Roxanne, fraction 4", "result": 0.009, "unit": "mM"}, {"measurement": "Alkaloid concentration in sucrose density-gradient fraction", "setting": "[3]; Cultivar Roxanne, fraction 5", "result": 0.011, "unit": "mM"}, {"measurement": "Alkaloid concentration in sucrose density-gradient fraction", "setting": "[3]; Cultivar Roxanne, fraction 6", "result": 0.007, "unit": "mM"}, {"measurement": "Alkaloid concentration in sucrose density-gradient fraction", "setting": "[3]; Cultivar Roxanne, fraction 7", "result": 0.00548, "unit": "mM"}, {"measurement": "Alkaloid concentration in sucrose density-gradient fraction", "setting": "[3]; Cultivar Roxanne, fraction 8", "result": 0.00529, "unit": "mM"}, {"measurement": "Alkaloid concentration in sucrose density-gradient fraction", "setting": "[3]; Cultivar Roxanne, fraction 9", "result": 0.00529, "unit": "mM"}, {"measurement": "Alkaloid concentration in sucrose density-gradient fraction", "setting": "[3]; Cultivar Roxanne, fraction 10", "result": 0.00476, "unit": "mM"}, {"measurement": "Alkaloid concentration in sucrose density-gradient fraction", "setting": "[3]; Cultivar Roxanne, fraction 11", "result": 0.005, "unit": "mM"}, {"measurement": "Alkaloid concentration in sucrose density-gradient fraction", "setting": "[3]; Cultivar Roxanne, fraction 12", "result": 0.006, "unit": "mM"}, {"measurement": "Alkaloid concentration in sucrose density-gradient fraction", "setting": "[3]; Cultivar Roxanne, fraction 13", "result": 0.00653, "unit": "mM"}, {"measurement": "Alkaloid concentration in sucrose density-gradient fraction", "setting": "[3]; Cultivar Roxanne, fraction 14", "result": 0.011, "unit": "mM"}, {"measurement": "Alkaloid concentration in sucrose density-gradient fraction", "setting": "[3]; Cultivar Roxanne, fraction 15", "result": 0.011, "unit": "mM"}, {"measurement": "Alkaloid concentration in sucrose density-gradient fraction", "setting": "[3]; Cultivar Roxanne, fraction 16", "result": 0.017, "unit": "mM"}, {"measurement": "Alkaloid concentration in sucrose density-gradient fraction", "setting": "[3]; Cultivar Roxanne, fraction 17", "result": 0.017, "unit": "mM"}, {"measurement": "Alkaloid concentration in sucrose density-gradient fraction", "setting": "[3]; Cultivar Roxanne, fraction 18", "result": 0.017, "unit": "mM"}, {"measurement": "Alkaloid concentration in sucrose density-gradient fraction", "setting": "[3]; Cultivar Roxanne, fraction 19", "result": 0.015, "unit": "mM"}, {"measurement": "Alkaloid concentration in sucrose density-gradient fraction", "setting": "[3]; Cultivar Roxanne, fraction 20", "result": 0.020, "unit": "mM"}, {"measurement": "Alkaloid concentration in sucrose density-gradient fraction", "setting": "[3]; Cultivar Roxanne, fraction 21", "result": 0.011, "unit": "mM"}, {"measurement": "Alkaloid concentration in sucrose density-gradient fraction", "setting": "[3]; Cultivar Roxanne, fraction 22", "result": 0.026, "unit": "mM"}, {"measurement": "Alkaloid accumulation in yeast", "setting": "[4]; 2 h salutaridine feeding, EV strain", "result": 0, "unit": "ug/ul/OD"}, {"measurement": "Alkaloid accumulation in yeast", "setting": "[4]; 2 h salutaridine feeding, MLP2 strain", "result": 0, "unit": "ug/ul/OD"}, {"measurement": "Alkaloid accumulation in yeast", "setting": "[4]; 2 h salutaridine feeding, MLP15 strain", "result": 0, "unit": "ug/ul/OD"}, {"measurement": "Alkaloid accumulation in yeast", "setting": "[4]; 2 h salutaridine feeding, NISO strain", "result": "107.675 ug/ul/OD and 157.001 ug/ul/OD and 148.548 ug/ul/OD and 122.82 ug/ul/OD"}, {"measurement": "Alkaloid accumulation in yeast", "setting": "[4]; 2 h salutaridine feeding, PR10-4 strain", "result": 0, "unit": "ug/ul/OD"}, {"measurement": "Alkaloid accumulation in yeast", "setting": "[4]; 2 h salutaridine feeding, PR10-10 strain", "result": 0, "unit": "ug/ul/OD"}, {"measurement": "Alkaloid accumulation in yeast", "setting": "[4]; 2 h salutaridine feeding, PR10-12 strain", "result": 0, "unit": "ug/ul/OD"}, {"measurement": "Alkaloid accumulation in yeast", "setting": "[4]; 6 h salutaridine feeding, EV strain", "result": "32.3254 ug/ul/OD and 28.0153 ug/ul/OD and 39.3344 ug/ul/OD and 0 ug/ul/OD"}, {"measurement": "Alkaloid accumulation in yeast", "setting": "[4]; 6 h salutaridine feeding, MLP2 strain", "result": "39.2619 ug/ul/OD and 30.1101 ug/ul/OD and 39.1599 ug/ul/OD and 45.9074 ug/ul/OD"}, {"measurement": "Alkaloid accumulation in yeast", "setting": "[4]; 6 h salutaridine feeding, MLP15 strain", "result": "42.4173 ug/ul/OD and 11.4693 ug/ul/OD and 27.9874 ug/ul/OD and 37.7122 ug/ul/OD"}, {"measurement": "Alkaloid accumulation in yeast", "setting": "[4]; 6 h salutaridine feeding, NISO strain", "result": "377.624 ug/ul/OD and 475.323 ug/ul/OD and 383.561 ug/ul/OD and 380.034 ug/ul/OD"}, {"measurement": "Alkaloid accumulation in yeast", "setting": "[4]; 6 h salutaridine feeding, PR10-4 strain", "result": "34.936 ug/ul/OD and 44.6481 ug/ul/OD and 35.9219 ug/ul/OD and 33.4971 ug/ul/OD"}, {"measurement": "Alkaloid accumulation in yeast", "setting": "[4]; 6 h salutaridine feeding, PR10-10 strain", "result": "34.3086 ug/ul/OD and 44.5164 ug/ul/OD and 37.3049 ug/ul/OD and 39.3297 ug/ul/OD"}, {"measurement": "Alkaloid accumulation in yeast", "setting": "[4]; 6 h salutaridine feeding, PR10-12 strain", "result": "30.1443 ug/ul/OD and 6.921 ug/ul/OD and 32.3611 ug/ul/OD and 0 ug/ul/OD"}]}]}
